# Results are given in words; binding and its absence hold for the method and conditions named. Binding seen in cells or lysates may run through a third protein. Some binding calls cover weakened binding; strength is not graded here.
# T1: caveolin-1 (mouse (endogenous in trachea and lung)) (UniProt P49817)
# T1 sequence: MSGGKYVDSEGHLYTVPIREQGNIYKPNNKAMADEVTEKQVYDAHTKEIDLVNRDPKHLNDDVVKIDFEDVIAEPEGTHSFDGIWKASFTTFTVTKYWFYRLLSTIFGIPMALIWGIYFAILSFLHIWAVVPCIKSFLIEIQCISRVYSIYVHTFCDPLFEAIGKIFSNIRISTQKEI
# B1: caveolin-3 (protein, UniProt P51637 1-151)
# chain: MMTEEHTDLEARIIKDIHCKEIDLVNRDPKNINEDIVKVDFEDVIAEPEGTYSFDGVWKVSFTTFTVSKYWCYRLLSTLLGVPLALLWGFLFACISFCHIWAVVPCIKSYLIEIQCISHIYSLCIRTFCNPLFAALGQVCSNIKVVLRREG
# Molecular target: T1, caveolin-1 (mouse (endogenous in trachea and lung))
# Assay: co-IP; 2 mg total tissue homogenate (octylglucoside lysis buffer: 10 mM Tris-HCl pH 7.4, 50 mM NaCl, 60 mM octylglucoside, 1% Triton X100) incubated with 1 µg anti-cav-1 antibody in PBS + 0.02% Tween-20 at 4 °C overnight, protein G dynabeads 4 h at 4 °C, three washes; immunoblot for cav-3; trachea and lung, heart and skeletal muscle as positive controls
binder,measurement,value
B1,binding,binds
